No constants are given. Whether binding was seen depends on the method and setting. In cells and extracts the contact can be indirect. Some results given as binding are weak or reduced against the parent protein; the word gives no strength.

Sequences of proteins named here, by UniProt entry; tags and fusion partners are left off. Residues count along the entry.
UniProt P47871, residues 26-477: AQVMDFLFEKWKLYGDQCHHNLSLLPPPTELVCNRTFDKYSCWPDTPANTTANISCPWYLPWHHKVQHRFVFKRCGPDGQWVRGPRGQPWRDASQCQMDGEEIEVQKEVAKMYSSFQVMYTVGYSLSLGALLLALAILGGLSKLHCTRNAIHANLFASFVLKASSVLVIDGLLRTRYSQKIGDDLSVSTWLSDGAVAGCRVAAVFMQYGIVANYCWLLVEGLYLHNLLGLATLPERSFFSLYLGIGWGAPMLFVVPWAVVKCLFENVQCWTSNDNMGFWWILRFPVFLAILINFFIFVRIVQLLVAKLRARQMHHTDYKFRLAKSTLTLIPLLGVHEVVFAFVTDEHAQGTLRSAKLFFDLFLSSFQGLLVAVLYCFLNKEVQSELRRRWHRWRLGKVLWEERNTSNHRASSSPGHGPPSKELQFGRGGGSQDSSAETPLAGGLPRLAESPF
UniProt P43220, residues 24-463: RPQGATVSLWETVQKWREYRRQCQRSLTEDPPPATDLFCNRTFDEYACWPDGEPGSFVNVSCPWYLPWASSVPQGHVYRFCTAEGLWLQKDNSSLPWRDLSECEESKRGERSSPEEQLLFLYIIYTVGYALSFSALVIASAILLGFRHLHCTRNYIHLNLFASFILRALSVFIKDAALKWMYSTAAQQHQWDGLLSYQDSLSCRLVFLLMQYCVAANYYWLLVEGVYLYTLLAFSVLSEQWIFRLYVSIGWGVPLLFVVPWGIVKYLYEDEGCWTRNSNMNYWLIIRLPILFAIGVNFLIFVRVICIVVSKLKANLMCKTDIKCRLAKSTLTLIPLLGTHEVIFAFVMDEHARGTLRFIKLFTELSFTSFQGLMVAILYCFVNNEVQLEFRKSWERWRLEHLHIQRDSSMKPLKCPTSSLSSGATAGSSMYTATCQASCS
UniProt P32121: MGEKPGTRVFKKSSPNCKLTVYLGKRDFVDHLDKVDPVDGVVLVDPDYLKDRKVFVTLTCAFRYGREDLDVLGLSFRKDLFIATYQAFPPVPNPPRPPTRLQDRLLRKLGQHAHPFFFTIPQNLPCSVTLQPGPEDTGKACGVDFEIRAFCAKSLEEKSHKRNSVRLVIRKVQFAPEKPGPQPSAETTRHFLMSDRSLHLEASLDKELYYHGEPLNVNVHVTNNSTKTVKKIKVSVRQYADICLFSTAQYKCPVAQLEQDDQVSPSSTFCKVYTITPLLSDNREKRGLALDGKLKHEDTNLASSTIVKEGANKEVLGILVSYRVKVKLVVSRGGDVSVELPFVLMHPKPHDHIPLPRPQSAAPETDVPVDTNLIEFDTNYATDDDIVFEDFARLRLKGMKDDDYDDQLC

Holding throughout (assay): split reporter
Test [1] has as its target human GCGR in PathHunter β-arrestin-2 CHO-K1 cells (human) (UniProt P47871).
Test [2] concerns the target human GLP-1R in PathHunter β-arrestin-2 CHO-K1 cells (human) (UniProt P43220).
Test [3] concerns the target GCGR-SmBiT (glucagon receptor tagged at the C-terminus with SmBiT) (UniProt P47871).
In test [4] the target is GLP-1R-SmBiT (glucagon-like peptide-1 receptor tagged at the C-terminus with SmBiT) (UniProt P43220).

“β-arrestin-2 of PathHunter β-arrestin-2 CHO-K1 cells (from UniProt P32121 1-409)”: the binding entry in test [1] and in test [2] was “binds” in each case.

Regarding “LgBiT-β-arrestin-2 (from UniProt P32121 1-409)”, the binding result in test [3] and in test [4] was “binds” throughout.

(Values after paper doi:10.1101/2020.04.26.062372.)
